# Data taken from the supplement of paper PMC11732987, “Enantioselective OTUD7B fragment discovery through chemoproteomics screening and high-throughput optimisation” (Communications Chemistry, 2025).
# This is one part of the list. The data scatter; read single values as rough.
# Tested on: T1, TK1 C206
# T1 sequence (whole entry): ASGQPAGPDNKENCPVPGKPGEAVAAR
# Experiment: log2 mean competition ratio of IA-DTB cysteine labelling (DMSO/compound) (log2 ratio); higher = stronger cysteine engagement by compound
# Conditions: 50 µM; treatment time: 4 h; cell line lysate: HEK293T
# Experimental: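 IA-DTB competitive cysteine chemoproteomics in HEK293T RIPA lysate. Lysates were treated with compound 29 or 30 at 50 or 200 µM for 4 h, then IA-DTB (500 µM, 1 h), trypsin-digested, NeutrAvidin-enriched and analysed by diaPASEF. Competition ratio = intensity DMSO / intensity compound (n=4 treated, n=64 DMSO); binding: mean log2 CR ≥ 1 and p ≤ 0.05 plus QC filters. Target is the cysteine site.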
row,SMILES,log2 mean competition ratio
1,O=C(CCl)N[C@H]1CCCc2ccccc21,-0.325
2,O=C(CCl)N[C@@H]1CCCc2ccccc21,-0.0936

# Same assay, conditions: 200 µM; treatment time: 4 h; cell line lysate: HEK293T
row,SMILES,log2 mean competition ratio
1,O=C(CCl)N[C@H]1CCCc2ccccc21,-0.374
2,O=C(CCl)N[C@@H]1CCCc2ccccc21,-0.15
